In the supplement of paper PMC10849652 one finds log2 fold change data, which are given here for 34 targets.

Chains of the proteins cited; added tags and fusions are not shown. Lines headed by an entry give the natural chain unless they say otherwise; changes in a name come on top.
UniProt Q9P2X0: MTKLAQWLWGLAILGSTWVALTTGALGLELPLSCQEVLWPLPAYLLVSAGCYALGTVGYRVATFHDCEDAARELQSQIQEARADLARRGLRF
UniProt O60762: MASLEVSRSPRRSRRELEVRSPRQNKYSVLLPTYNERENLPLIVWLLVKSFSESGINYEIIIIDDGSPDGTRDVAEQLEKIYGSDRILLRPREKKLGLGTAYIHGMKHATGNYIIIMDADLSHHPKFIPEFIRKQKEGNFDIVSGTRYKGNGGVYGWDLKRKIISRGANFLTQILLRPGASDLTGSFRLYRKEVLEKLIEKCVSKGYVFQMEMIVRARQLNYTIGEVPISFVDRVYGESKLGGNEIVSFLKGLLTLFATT
UniProt O75190: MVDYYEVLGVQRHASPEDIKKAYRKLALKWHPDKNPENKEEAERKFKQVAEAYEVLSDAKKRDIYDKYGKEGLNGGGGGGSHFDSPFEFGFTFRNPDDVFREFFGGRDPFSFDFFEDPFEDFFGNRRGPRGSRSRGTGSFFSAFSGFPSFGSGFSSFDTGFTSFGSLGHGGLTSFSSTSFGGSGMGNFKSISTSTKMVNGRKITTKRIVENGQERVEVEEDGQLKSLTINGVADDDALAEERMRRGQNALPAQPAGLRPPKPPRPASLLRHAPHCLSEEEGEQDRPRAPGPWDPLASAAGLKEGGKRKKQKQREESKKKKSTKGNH
UniProt Q92611: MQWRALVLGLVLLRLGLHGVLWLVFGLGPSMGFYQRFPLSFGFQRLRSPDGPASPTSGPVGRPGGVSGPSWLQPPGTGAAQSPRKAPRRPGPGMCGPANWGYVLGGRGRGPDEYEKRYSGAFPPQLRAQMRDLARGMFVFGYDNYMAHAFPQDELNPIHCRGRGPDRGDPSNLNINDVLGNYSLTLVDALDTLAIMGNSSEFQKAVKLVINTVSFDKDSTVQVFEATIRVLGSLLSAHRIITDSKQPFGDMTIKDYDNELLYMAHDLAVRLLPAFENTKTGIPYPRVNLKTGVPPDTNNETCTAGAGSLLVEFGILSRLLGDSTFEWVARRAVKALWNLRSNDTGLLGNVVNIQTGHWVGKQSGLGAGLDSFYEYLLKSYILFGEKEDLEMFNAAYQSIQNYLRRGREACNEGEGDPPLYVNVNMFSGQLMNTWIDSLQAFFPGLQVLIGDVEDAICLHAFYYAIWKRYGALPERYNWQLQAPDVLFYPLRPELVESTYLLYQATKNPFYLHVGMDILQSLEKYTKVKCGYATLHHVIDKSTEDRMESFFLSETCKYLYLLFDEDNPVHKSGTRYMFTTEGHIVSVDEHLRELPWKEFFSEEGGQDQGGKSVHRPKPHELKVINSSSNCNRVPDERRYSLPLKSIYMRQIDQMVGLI
UniProt Q8WWZ3: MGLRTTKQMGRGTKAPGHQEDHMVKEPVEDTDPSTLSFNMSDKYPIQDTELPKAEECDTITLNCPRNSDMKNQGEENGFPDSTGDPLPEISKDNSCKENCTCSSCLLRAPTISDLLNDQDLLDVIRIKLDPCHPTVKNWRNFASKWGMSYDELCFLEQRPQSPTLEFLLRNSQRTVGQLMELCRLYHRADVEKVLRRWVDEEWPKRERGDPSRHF
UniProt O95620: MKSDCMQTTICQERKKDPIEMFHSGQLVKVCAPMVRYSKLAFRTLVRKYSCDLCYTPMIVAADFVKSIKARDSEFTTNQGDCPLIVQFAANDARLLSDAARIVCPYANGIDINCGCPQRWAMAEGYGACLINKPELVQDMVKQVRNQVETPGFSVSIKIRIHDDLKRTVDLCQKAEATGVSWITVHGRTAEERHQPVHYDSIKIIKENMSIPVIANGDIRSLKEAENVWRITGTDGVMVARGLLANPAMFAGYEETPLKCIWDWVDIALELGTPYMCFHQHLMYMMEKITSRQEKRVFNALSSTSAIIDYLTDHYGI
UniProt Q9UNI6, whole entry, looked up: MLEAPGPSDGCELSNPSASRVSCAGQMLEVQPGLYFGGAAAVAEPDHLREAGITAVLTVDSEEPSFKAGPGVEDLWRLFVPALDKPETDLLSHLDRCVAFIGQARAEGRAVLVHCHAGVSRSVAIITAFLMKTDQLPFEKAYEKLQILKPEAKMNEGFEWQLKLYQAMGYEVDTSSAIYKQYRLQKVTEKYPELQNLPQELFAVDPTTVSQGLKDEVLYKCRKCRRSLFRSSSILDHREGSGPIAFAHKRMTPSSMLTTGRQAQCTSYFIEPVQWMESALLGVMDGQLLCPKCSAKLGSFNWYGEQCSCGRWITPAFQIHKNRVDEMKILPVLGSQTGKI
UniProt Q9BZG8: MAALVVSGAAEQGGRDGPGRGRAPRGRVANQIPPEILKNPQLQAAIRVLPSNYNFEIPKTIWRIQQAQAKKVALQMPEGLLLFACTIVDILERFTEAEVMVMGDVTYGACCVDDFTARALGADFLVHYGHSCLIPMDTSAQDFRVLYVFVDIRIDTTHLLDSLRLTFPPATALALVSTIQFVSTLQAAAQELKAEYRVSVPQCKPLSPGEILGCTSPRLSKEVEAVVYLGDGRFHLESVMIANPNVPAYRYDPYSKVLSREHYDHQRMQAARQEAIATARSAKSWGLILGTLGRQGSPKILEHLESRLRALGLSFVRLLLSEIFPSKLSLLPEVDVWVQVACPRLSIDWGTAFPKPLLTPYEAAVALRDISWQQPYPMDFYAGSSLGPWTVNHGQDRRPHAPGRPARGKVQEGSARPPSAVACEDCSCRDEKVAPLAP
UniProt Q9C005, whole entry, looked up: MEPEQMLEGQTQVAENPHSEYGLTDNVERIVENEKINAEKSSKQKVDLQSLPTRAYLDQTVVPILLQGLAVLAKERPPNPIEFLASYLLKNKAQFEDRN
UniProt P26358: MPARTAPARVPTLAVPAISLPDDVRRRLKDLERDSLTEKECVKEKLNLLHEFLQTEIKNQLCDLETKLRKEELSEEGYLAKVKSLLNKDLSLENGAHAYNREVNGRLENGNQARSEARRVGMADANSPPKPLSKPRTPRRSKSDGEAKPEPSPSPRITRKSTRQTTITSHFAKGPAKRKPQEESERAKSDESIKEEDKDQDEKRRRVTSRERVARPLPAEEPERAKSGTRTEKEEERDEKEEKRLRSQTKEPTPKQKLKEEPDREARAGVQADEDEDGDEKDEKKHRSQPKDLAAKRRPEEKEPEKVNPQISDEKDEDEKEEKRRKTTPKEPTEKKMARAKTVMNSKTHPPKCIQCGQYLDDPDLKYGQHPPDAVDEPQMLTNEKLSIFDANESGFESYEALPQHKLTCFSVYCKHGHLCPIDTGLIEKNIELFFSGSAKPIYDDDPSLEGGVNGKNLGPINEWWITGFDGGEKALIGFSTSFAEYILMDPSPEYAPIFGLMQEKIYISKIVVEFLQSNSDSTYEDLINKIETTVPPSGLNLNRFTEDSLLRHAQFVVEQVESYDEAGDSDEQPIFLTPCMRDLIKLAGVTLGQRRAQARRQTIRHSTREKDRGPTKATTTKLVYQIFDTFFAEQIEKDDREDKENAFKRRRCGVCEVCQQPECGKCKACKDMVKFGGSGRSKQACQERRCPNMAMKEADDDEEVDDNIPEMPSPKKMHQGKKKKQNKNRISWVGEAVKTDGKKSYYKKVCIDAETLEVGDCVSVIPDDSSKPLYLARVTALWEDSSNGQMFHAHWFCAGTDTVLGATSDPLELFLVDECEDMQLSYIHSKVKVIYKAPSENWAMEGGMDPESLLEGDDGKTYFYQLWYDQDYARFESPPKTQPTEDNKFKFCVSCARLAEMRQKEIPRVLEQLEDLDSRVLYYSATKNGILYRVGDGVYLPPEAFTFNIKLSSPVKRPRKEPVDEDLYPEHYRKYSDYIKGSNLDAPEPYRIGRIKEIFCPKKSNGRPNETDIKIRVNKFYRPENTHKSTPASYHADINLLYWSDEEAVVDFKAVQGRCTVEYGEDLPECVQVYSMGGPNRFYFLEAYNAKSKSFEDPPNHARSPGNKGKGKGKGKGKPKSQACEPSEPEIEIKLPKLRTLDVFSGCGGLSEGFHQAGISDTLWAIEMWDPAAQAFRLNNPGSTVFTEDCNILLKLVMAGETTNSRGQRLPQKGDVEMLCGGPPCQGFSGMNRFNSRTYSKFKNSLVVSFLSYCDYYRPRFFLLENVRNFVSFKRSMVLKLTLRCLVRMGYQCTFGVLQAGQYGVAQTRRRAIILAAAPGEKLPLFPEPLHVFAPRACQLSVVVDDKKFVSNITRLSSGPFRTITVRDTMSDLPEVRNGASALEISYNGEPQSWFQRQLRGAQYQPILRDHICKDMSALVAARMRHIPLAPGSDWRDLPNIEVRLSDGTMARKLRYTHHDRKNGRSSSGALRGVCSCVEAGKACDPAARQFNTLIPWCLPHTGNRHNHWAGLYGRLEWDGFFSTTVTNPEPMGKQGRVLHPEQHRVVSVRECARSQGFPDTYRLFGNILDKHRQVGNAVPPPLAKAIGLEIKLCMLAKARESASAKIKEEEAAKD
UniProt P60981: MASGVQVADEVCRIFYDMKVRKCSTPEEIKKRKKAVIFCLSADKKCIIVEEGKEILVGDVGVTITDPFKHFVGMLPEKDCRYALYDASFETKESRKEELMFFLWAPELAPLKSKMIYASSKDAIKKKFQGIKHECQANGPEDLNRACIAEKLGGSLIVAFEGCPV
UniProt Q9BZ29: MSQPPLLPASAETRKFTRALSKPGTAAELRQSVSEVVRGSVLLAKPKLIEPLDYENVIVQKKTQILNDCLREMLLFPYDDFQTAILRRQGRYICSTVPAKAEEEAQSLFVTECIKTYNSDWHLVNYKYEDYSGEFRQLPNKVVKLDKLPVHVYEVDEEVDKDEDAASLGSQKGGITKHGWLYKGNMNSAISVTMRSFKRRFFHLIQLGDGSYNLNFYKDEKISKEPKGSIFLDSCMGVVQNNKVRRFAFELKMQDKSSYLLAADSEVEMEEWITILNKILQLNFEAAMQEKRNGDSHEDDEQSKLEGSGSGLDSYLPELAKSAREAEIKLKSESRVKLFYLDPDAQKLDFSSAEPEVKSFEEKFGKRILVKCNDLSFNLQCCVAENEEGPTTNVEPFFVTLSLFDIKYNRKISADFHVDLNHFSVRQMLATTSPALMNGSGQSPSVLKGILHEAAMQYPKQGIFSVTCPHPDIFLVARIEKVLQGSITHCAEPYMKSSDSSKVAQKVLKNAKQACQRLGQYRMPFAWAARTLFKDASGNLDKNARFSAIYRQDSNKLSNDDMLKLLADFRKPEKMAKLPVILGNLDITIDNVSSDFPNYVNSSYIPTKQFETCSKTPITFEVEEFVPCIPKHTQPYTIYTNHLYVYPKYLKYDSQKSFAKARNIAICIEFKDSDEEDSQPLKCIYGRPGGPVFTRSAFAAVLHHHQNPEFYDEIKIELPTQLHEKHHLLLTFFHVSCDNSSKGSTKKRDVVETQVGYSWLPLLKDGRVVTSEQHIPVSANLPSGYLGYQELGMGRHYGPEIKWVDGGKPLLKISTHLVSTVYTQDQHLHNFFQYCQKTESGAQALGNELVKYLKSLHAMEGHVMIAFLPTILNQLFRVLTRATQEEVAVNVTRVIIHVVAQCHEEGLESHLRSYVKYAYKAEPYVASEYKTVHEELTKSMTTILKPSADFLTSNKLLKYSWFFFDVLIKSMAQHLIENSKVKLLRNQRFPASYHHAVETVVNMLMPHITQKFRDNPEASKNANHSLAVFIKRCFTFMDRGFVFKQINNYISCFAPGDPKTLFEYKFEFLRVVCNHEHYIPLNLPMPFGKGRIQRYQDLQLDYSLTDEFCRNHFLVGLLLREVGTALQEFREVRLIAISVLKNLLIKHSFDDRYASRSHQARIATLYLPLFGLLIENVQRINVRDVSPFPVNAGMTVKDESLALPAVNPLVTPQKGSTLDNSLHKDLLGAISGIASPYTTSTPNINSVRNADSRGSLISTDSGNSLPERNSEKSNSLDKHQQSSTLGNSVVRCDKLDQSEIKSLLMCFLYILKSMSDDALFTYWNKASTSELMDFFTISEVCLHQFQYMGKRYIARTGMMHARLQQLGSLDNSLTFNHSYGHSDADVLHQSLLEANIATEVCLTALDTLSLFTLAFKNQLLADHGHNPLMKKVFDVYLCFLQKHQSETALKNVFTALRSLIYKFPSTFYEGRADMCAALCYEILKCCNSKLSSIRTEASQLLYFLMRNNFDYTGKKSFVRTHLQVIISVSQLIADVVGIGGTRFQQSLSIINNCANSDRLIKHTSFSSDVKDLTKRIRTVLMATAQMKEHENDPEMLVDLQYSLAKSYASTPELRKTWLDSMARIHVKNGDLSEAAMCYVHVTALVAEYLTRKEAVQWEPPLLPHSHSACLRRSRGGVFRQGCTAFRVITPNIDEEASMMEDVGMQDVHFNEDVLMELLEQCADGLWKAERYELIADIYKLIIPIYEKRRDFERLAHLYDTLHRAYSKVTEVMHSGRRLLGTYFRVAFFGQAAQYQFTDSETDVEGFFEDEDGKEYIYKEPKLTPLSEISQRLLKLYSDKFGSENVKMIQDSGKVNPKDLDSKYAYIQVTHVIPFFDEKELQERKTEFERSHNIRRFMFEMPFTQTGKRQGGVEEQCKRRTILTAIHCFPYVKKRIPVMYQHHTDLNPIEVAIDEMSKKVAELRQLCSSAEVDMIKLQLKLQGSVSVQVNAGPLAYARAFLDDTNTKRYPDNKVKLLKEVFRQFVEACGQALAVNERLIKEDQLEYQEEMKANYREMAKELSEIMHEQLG

This is one part of the list.

Compound in one assay: CC(C)(C)Cn1c(N)nc2ccc(-c3[nH]c(C(C)(C)C)nc3-c3ccc(F)cc3)nc21 [ralimetinib]
The assay can be described thus: log2 fold change, soluble protein after heating vs DMSO (PISA); higher = thermal stabilisation; K562 cells, 10 uM, 30 min; active = over 0.2 and 3.5 SD of the protein, either way, in both replicates (recomputed). An outline of the steps:
(§1)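 K562 cells at 2×10^6 cells/mL were given 10 μM compound for 30 min. Aliquots then went through 3 min of heating across 48°C-58°C, were pooled, and were extracted in PBS with 0.5% NP-40 at 4°C, and the supernatant after 21,000xg for 90 min was quantified by TMTpro 16plex LC-MS/MS with channel sums equalised. Thermal stability relative to control samples, from duplicates, is given as log2 fold change.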
For ECHDC1 (UniProt Q9NTX5), the log2 fold change is inactive: -0.053.

Turning to DNAJA3 (UniProt Q96EY1), the log2 fold change is inactive: -0.063.

On to DPH7 (UniProt Q9BTV6), for which the log2 fold change was inactive: -0.077.

Consider DPM3 isoform 2 (UniProt Q9P2X0), for which the log2 fold change is inactive: 0.022.

On to EARS2 isoform 2 (UniProt Q5JPH6), for which the log2 fold change is inactive: -0.065.

Consider DST (UniProt Q03001), for which the log2 fold change is inactive: 0.185.

As to DPM1 (UniProt O60762), the log2 fold change is inactive: -0.1.

In the case of ECE1 (UniProt P42892), the log2 fold change is inactive: -0.042.

With EDF1 (UniProt O60869), the log2 fold change was inactive: -0.09.

As to DPY19L4 (UniProt Q7Z388), the log2 fold change is inactive: -0.057.

DNAJB6 (UniProt O75190): the log2 fold change is inactive: -0.036.

Consider EDEM1 (UniProt Q92611), for which the log2 fold change is inactive: -0.012.

Turning to DNAJB4 (UniProt Q9UDY4), the log2 fold change was inactive: 0.043.

For the target EBP (UniProt Q15125), the log2 fold change is inactive: -0.027.

As for DUT (UniProt P33316), the log2 fold change is inactive: -0.102.

In the case of DPF2 (UniProt Q92785), the log2 fold change is inactive: 0.089.

On to EDARADD (UniProt Q8WWZ3), for which the log2 fold change is inactive: -0.089.

As to DUS4L (UniProt O95620), the log2 fold change was inactive: -0.112.

Take DR1 (UniProt Q01658): the log2 fold change was inactive: -0.021.

In the case of DUSP12 (UniProt Q9UNI6), the log2 fold change was inactive: -0.007.

With EAF1 (UniProt Q96JC9), the log2 fold change was inactive: -0.031.

Regarding DPH1 (UniProt Q9BZG8), the log2 fold change is inactive: 0.008.

With DPY30 (UniProt Q9C005), the log2 fold change was inactive: 0.076.

DNMT1 isoform 2 (UniProt P26358): the log2 fold change was inactive: 0.004.

As for DNAJC3 (UniProt Q13217), the log2 fold change was inactive: 0.029.

As for DSG2 (UniProt Q14126), the log2 fold change is inactive: 0.029.

Consider ECI1 (UniProt P42126), for which the log2 fold change is inactive: -0.064.

Regarding DRG1 (UniProt Q9Y295), the log2 fold change is inactive: 0.041.

Take DSTN (UniProt P60981): the log2 fold change is inactive: -0.016.

With DOCK9 isoform 4 (UniProt Q9BZ29), the log2 fold change is inactive: 0.058.

On to DPH2 (UniProt Q9BQC3), for which the log2 fold change was inactive: 0.038.

Turning to DSC2 (UniProt Q02487), the log2 fold change was inactive: -0.115.

Consider DYNC1LI1 (UniProt Q9Y6G9), for which the log2 fold change is inactive: -0.013.

For the target ECM1 isoform 4 (UniProt Q16610), the log2 fold change is inactive: 0.027.

Compound in a further assay: CC(C)(O)CC(=O)NCCn1ccc2ncnc(Nc3ccc(Oc4cccc(C(F)(F)F)c4)c(Cl)c3)c21
The description is as above. An outline of the steps: as §1
Turning to ECHDC1 (UniProt Q9NTX5), the log2 fold change is inactive: 0.007.

In the case of DNAJA3 (UniProt Q96EY1), the log2 fold change was inactive: -0.017.

Turning to DPH7 (UniProt Q9BTV6), the log2 fold change is inactive: -0.005.

As to DPM3 isoform 2 (UniProt Q9P2X0), the log2 fold change was inactive: -0.06.

Turning to EARS2 isoform 2 (UniProt Q5JPH6), the log2 fold change was inactive: -0.442.

With DST (UniProt Q03001), the log2 fold change was inactive: 0.05.

With DPM1 (UniProt O60762), the log2 fold change is inactive: -0.04.

ECE1 (UniProt P42892): the log2 fold change is inactive: -0.001.

In the case of EDF1 (UniProt O60869), the log2 fold change is inactive: 0.084.

As to DPY19L4 (UniProt Q7Z388), the log2 fold change was inactive: -0.041.

In the case of DNAJB6 (UniProt O75190), the log2 fold change was inactive: 0.022.

Regarding EDEM1 (UniProt Q92611), the log2 fold change is inactive: -0.051.

For the target DNAJB4 (UniProt Q9UDY4), the log2 fold change is inactive: -0.009.

Turning to EBP (UniProt Q15125), the log2 fold change was inactive: -0.007.

Consider DUT (UniProt P33316), for which the log2 fold change was inactive: -0.095.

On to DPF2 (UniProt Q92785), for which the log2 fold change is inactive: 0.02.

Take EDARADD (UniProt Q8WWZ3): the log2 fold change is inactive: -0.016.

Take DUS4L (UniProt O95620): the log2 fold change was inactive: 0.057.

Consider DR1 (UniProt Q01658), for which the log2 fold change is inactive: -0.106.

Turning to DUSP12 (UniProt Q9UNI6), the log2 fold change is inactive: -0.01.

As for EAF1 (UniProt Q96JC9), the log2 fold change is inactive: -0.062.

On to DPH1 (UniProt Q9BZG8), for which the log2 fold change is inactive: 0.

On to DPY30 (UniProt Q9C005), for which the log2 fold change is inactive: -0.073.

As for DNMT1 isoform 2 (UniProt P26358), the log2 fold change is inactive: 0.

For the target DNAJC3 (UniProt Q13217), the log2 fold change is inactive: 0.022.

Turning to DSG2 (UniProt Q14126), the log2 fold change is inactive: -0.004.

ECI1 (UniProt P42126): the log2 fold change was inactive: 0.002.

In the case of DRG1 (UniProt Q9Y295), the log2 fold change is inactive: 0.022.

Turning to DSTN (UniProt P60981), the log2 fold change is inactive: 0.015.

On to DOCK9 isoform 4 (UniProt Q9BZ29), for which the log2 fold change was inactive: -0.068.

As to DPH2 (UniProt Q9BQC3), the log2 fold change was inactive: -0.027.

As for DSC2 (UniProt Q02487), the log2 fold change was inactive: 0.005.

Take DYNC1LI1 (UniProt Q9Y6G9): the log2 fold change was inactive: -0.045.

Turning to ECM1 isoform 4 (UniProt Q16610), the log2 fold change is inactive: -0.036.

Compound in a further assay: CC(C)C1=C2N=C(C=C(N2N=C1)NCC3=CC=CC=C3)NCCCCCCN
Described as above. An outline of the steps: as §1
For the target ECHDC1 (UniProt Q9NTX5), the log2 fold change was inactive: 0.071.

In the case of DNAJA3 (UniProt Q96EY1), the log2 fold change is inactive: -0.014.

As for DPH7 (UniProt Q9BTV6), the log2 fold change is inactive: 0.058.

As for DPM3 isoform 2 (UniProt Q9P2X0), the log2 fold change is inactive: -0.013.

Consider EARS2 isoform 2 (UniProt Q5JPH6), for which the log2 fold change is inactive: -0.001.

As for DST (UniProt Q03001), the log2 fold change is inactive: 0.011.

Consider DPM1 (UniProt O60762), for which the log2 fold change is inactive: -0.048.

In the case of ECE1 (UniProt P42892), the log2 fold change was inactive: -0.005.

On to EDF1 (UniProt O60869), for which the log2 fold change was inactive: 0.066.

With DPY19L4 (UniProt Q7Z388), the log2 fold change is inactive: 0.112.

With DNAJB6 (UniProt O75190), the log2 fold change is inactive: -0.009.

On to EDEM1 (UniProt Q92611), for which the log2 fold change was inactive: -0.117.

Turning to DNAJB4 (UniProt Q9UDY4), the log2 fold change is inactive: -0.029.

As for EBP (UniProt Q15125), the log2 fold change was inactive: 0.004.

As to DUT (UniProt P33316), the log2 fold change was inactive: 0.021.

For the target DPF2 (UniProt Q92785), the log2 fold change is inactive: 0.024.

Consider EDARADD (UniProt Q8WWZ3), for which the log2 fold change was inactive: -0.028.

Turning to DUS4L (UniProt O95620), the log2 fold change is inactive: 0.115.

In the case of DR1 (UniProt Q01658), the log2 fold change was inactive: 0.041.

For the target DUSP12 (UniProt Q9UNI6), the log2 fold change is inactive: -0.157.

In the case of EAF1 (UniProt Q96JC9), the log2 fold change was inactive: 0.044.

As for DPH1 (UniProt Q9BZG8), the log2 fold change is inactive: 0.056.

With DPY30 (UniProt Q9C005), the log2 fold change is inactive: 0.242.

On to DNMT1 isoform 2 (UniProt P26358), for which the log2 fold change was inactive: 0.043.

In the case of DNAJC3 (UniProt Q13217), the log2 fold change was inactive: -0.011.

On to DSG2 (UniProt Q14126), for which the log2 fold change is inactive: 0.032.

ECI1 (UniProt P42126): the log2 fold change was inactive: 0.026.

Regarding DRG1 (UniProt Q9Y295), the log2 fold change is inactive: 0.071.

For DSTN (UniProt P60981), the log2 fold change is inactive: -0.042.

With DOCK9 isoform 4 (UniProt Q9BZ29), the log2 fold change is inactive: -0.006.

DPH2 (UniProt Q9BQC3): the log2 fold change is inactive: 0.04.

In the case of DSC2 (UniProt Q02487), the log2 fold change was inactive: 0.016.

Regarding DYNC1LI1 (UniProt Q9Y6G9), the log2 fold change was inactive: -0.043.

For the target ECM1 isoform 4 (UniProt Q16610), the log2 fold change is inactive: 0.027.
